Reference: PubChem BioAssay AID344 (DTP/NCI, 2004)
The list shows only some results of the screen, not a fair sample: it gathers tests that were run many times, whatever their T/C, doses with no T/C, and many T/C values between a quarter and a half above the control. Further doses and runs are listed elsewhere. T/C: endpoint of the treated group in % of that of the vehicle group. Some entries give survivors of the animals treated and no T/C: the source holds a T/C of zero for them, seemingly a mark for toxic or unscored doses. Some doses without a T/C left all or most animals alive at the check, yet need not have been tolerated: the source hardly ever lists a survival T/C far under the control, and the zero likely stands for such cases as well. Survivors were counted at the toxicity check, usually on the fifth day, unless a day is given; later deaths do not show. Schedules are NCI's codes, read here as Q, the interval in days (D) or hours (H), X, the number of doses. Some entries hold several experiments; their values stand side by side, smallest first. Some schedules carry Z or #; the key to these is not given. Where survival is the endpoint, the PubChem record calls one and a half times the control and up active, and a quarter to a half above the control has no call in these data; cut-offs in other NCI protocols can differ. Signs of the kind (2×) say how often a value occurs here. Some T/C values are followed by the survivors on the day toxicity was checked, most often the fifth; where none is given, no animal had died by that day.

Tested on: mice, LPC-1 plasma cell tumor ip, median survival T/C
Assay: NCI In Vivo Anticancer Drug Screen. Data for tumor model Lieberman Plasma Cell No. 1 (LPC-1) (intraperitoneal) in unknown mice
Settings: T/C endpoint: median survival time, higher T/C = longer survival
Method: The antitumor activity of compounds was measured in mice bearing transplantable tumors. Survival or tumor size were measured and the results are expressed as the measurement made in the treated group (T) divided by the measurement made in the vehicle treated control group (C). The tumor model used in this assay is Lieberman Plasma Cell No. 1 (LPC-1) (intraperitoneal) in unknown mice

[1] = dose: 1.8 mg/kg/injection, schedule: Q01DX028 (sc), vehicle: saline
[2] = dose: 10.0 mg/kg/injection, schedule: Q01DX028 (sc), vehicle: carboxymethylcellulose (CMC)
[3] = dose: 80.0 mg/kg/injection, schedule: Q01DX028 (sc), vehicle: carboxymethylcellulose (CMC)
[4] = dose: 120.0 mg/kg/injection, schedule: Q01DX028 (sc), vehicle: carboxymethylcellulose (CMC)

Q: Which results are given for `N[C@@H](Cc1ccc(N(CCCl)CCCl)cc1)C(=O)O`?
A: T/C (dose: 0.39 mg/kg/injection, schedule: Q01DX028 (sc), vehicle: saline): 134 % of control [11 of 12 alive]; T/C (dose: 0.5 mg/kg/injection, schedule: Q01DX028 (sc), vehicle: methylcellulose (MC)): 125 % of control; T/C (dose: 0.93 mg/kg/injection, schedule: Q01DX005 (oral), vehicle: carboxymethylcellulose (CMC)): 133 % of control [7 of 8 alive]; T/C (dose: 0.93 mg/kg/injection, schedule: Q## X010 (oral), vehicle: carboxymethylcellulose (CMC)): 133 % of control [6 of 8 alive]; T/C (dose: 0.93 mg/kg/injection, schedule: Q## X015 (oral), vehicle: carboxymethylcellulose (CMC)): 133 % of control; T/C (dose: 1.0 mg/kg/injection, schedule: Q01DX028 (sc), vehicle: methylcellulose (MC)): 144 % of control; T/C (dose: 1.08 mg/kg/injection, schedule: Q01DX028 (sc), vehicle: saline): 134 [11 of 12 alive], 165 [11 of 12 alive], 179, 189 % of control [6 of 8 alive]; survivor count (dose: 1.25 mg/kg/injection, schedule: Q01DX024 (ip), vehicle: saline): 5 of 8; T/C [1]: 110 [11 of 12 alive], 168, 178 [7 of 8 alive], 202 % of control [10 of 12 alive]; T/C (dose: 1.87 mg/kg/injection, schedule: Q## X010 (oral), vehicle: carboxymethylcellulose (CMC)): 142 % of control [6 of 8 alive]; survivor count (dose: 1.9 mg/kg/injection, schedule: Q## X010 (ip), vehicle: saline): 5 of 8; T/C (dose: 2.0 mg/kg/injection, schedule: Q01DX028 (sc), vehicle: methylcellulose (MC)): 148 % of control; survivor count (dose: 2.5 mg/kg/injection, schedule: Q01DX024 (ip), vehicle: saline): 5 of 8; survivor count (dose: 3.0 mg/kg/injection, schedule: Q01DX005 (sc), vehicle: saline): 5 of 8; survivor count (dose: 3.8 mg/kg/injection, schedule: Q01DX005 (ip), vehicle: saline): 4 of 8; survivor count (dose: 5.0 mg/kg/injection, schedule: Q01DX005 (sc), vehicle: saline): 3 of 8; T/C (dose: 7.5 mg/kg/injection, schedule: Q01DX005 (ip), vehicle: saline): 126 % of control [7 of 8 alive]; survivor count (dose: 7.5 mg/kg/injection, schedule: Q## X010 (ip), vehicle: saline): 4 of 8; survivor count (dose: 7.5 mg/kg/injection, schedule: Q## X015 (oral), vehicle: carboxymethylcellulose (CMC)): 5 of 8 and 6 of 8; survivor count (dose: 8.0 mg/kg/injection, schedule: Q01DX028 (sc), vehicle: methylcellulose (MC)): 9 of 10; survivor count (dose: 8.4 mg/kg/injection, schedule: Q01DX001 (sc), vehicle: saline): 5 of 8; T/C (dose: 9.5 mg/kg/injection, schedule: Q01DX001 (oral), vehicle: carboxymethylcellulose (CMC)): 140 % of control; survivor count (dose: 14.0 mg/kg/injection, schedule: Q01DX001 (sc), vehicle: saline): 2 of 8; survivor count (dose: 14.0 mg/kg/injection, schedule: Q01DX005 (sc), vehicle: saline): 5 of 8; survivor count (dose: 15.0 mg/kg/injection, schedule: Q01DX005 (oral), vehicle: carboxymethylcellulose (CMC)): 5 of 8 and 7 of 8; survivor count (dose: 15.0 mg/kg/injection, schedule: Q## X010 (oral), vehicle: carboxymethylcellulose (CMC)): 7 of 8; survivor count (dose: 16.0 mg/kg/injection, schedule: Q01DX028 (sc), vehicle: methylcellulose (MC)): 8 of 10; survivor count (dose: 18.0 mg/kg/injection, schedule: Q01DX024 (oral), vehicle: carboxymethylcellulose (CMC)): 8 of 8; survivor count (dose: 23.0 mg/kg/injection, schedule: Q01DX001 (sc), vehicle: saline): 4 of 8; survivor count (dose: 30.0 mg/kg/injection, schedule: Q## X010 (oral), vehicle: carboxymethylcellulose (CMC)): 7 of 8; survivor count (dose: 30.0 mg/kg/injection, schedule: Q## X015 (oral), vehicle: carboxymethylcellulose (CMC)): 8 of 8; survivor count (dose: 38.0 mg/kg/injection, schedule: Q01DX001 (oral), vehicle: carboxymethylcellulose (CMC)): 7 of 8; survivor count (dose: 60.0 mg/kg/injection, schedule: Q## X010 (oral), vehicle: carboxymethylcellulose (CMC)): 4 of 8; survivor count (dose: 60.0 mg/kg/injection, schedule: Q## X015 (oral), vehicle: carboxymethylcellulose (CMC)): 5 of 8; survivor count (dose: 75.0 mg/kg/injection, schedule: Q01DX001 (oral), vehicle: carboxymethylcellulose (CMC)): 8 of 8; survivor count (dose: 130.0 mg/kg/injection, schedule: Q01DX001 (ip), vehicle: saline): 1 of 8; survivor count (dose: 150.0 mg/kg/injection, schedule: Q01DX001 (oral), vehicle: carboxymethylcellulose (CMC)): 6 of 8; survivor count (dose: 300.0 mg/kg/injection, schedule: Q01DX001 (oral), vehicle: carboxymethylcellulose (CMC)): 7 of 8

Q: Which T/C (dose: 100.0 mg/kg/injection, schedule: Q01DX028 (sc), vehicle: steroid suspending solution) does the source give for `CC1(C)CC(C)(c2ccc(O)cc2)c2ccccc2O1` (configuration not stated) here?
A: The T/C was 138 % of control.

Q: For `CN(Cc1cnc2nc(N)nc(N)c2n1)c1ccc(C(=O)N[C@@H](CCC(=O)O)C(=O)O)cc1`, which T/C (dose: 0.25 mg/kg/injection, schedule: Q01DX028 (sc), vehicle: other) is on record?
A: The T/C was 125 % of control.

Q: What about the T/C (dose: 0.5 mg/kg/injection, schedule: Q01DX028 (sc), vehicle: other) of the same compound?
A: Its T/C is 136 % of control.

Q: What about the survivor count (dose: 2.0 mg/kg/injection, schedule: Q01DX028 (sc), vehicle: other) of the same compound?
A: Its survivor count is 12 of 12.

Q: How did the T/C (dose: 30.0 mg/kg/injection, schedule: Q01DX028 (sc), vehicle: saline) turn out when `NC(CSC(c1ccccc1)(c1ccccc1)c1ccccc1)C(=O)O` (configuration not stated) was run?
A: Its T/C is 129 % of control [7 of 8 alive].

Q: `O=C(O)CCCc1ccc(N(CCCl)CCCl)cc1` was tested. Which T/C (dose: 8.0 mg/kg/injection, schedule: Q01DX007 (sc), vehicle: saline) did it give?
A: The T/C was 128 % of control [9 of 10 alive].

Q: What about the survivor count [2] of the same compound?
A: The survivor count was 5 of 8.

Q: What about the T/C (dose: 20.0 mg/kg/injection, schedule: Q01DX028 (sc), vehicle: carboxymethylcellulose (CMC)) of the same compound?
A: The T/C was 126 % of control [7 of 10 alive].

Q: And the T/C (dose: 23.0 mg/kg/injection, schedule: Q01DX028 (sc), vehicle: methylcellulose (MC))?
A: The T/C was 134 % of control.

Q: And the T/C (dose: 39.0 mg/kg/injection, schedule: Q01DX028 (sc), vehicle: methylcellulose (MC))?
A: Its T/C is 136 % of control.

Q: And the survivor count (dose: 40.0 mg/kg/injection, schedule: Q01DX028 (sc), vehicle: carboxymethylcellulose (CMC))?
A: The survivor count was 2 of 10.

Q: Which results are given for `CS(=O)(=O)OCCN(CCOS(C)(=O)=O)c1ccc(C(=O)O)cc1`?
A: T/C [2]: 144 % of control [9 of 10 alive]; T/C [3]: 147 % of control; T/C [4]: 126 % of control

Q: How did the T/C (dose: 0.5 mg/kg/injection, schedule: Q01DX028 (sc), vehicle: saline) turn out when `CS(=O)(=O)OCCN(CCOS(C)(=O)=O)c1ccc(N=O)cc1` was run?
A: The T/C was 141 % of control [7 of 8 alive].

Q: And the T/C (dose: 1.0 mg/kg/injection, schedule: Q01DX028 (sc), vehicle: saline)?
A: The T/C was 141 % of control [7 of 8 alive].

Q: What about the survivor count (dose: 4.0 mg/kg/injection, schedule: Q01DX028 (sc), vehicle: saline) of the same compound?
A: Its survivor count is 8 of 8.

Q: And the survivor count (dose: 9.0 mg/kg/injection, schedule: Q01DX028 (sc), vehicle: saline)?
A: The survivor count was 7 of 8.

Q: Which T/C (dose: 20.0 mg/kg/injection, schedule: Q01DX028 (sc), vehicle: water) does the source give for `CS(=O)(=O)OCCCCCOS(C)(=O)=O` here?
A: The T/C was 141 % of control.

Q: What about the T/C (dose: 30.0 mg/kg/injection, schedule: Q01DX028 (sc), vehicle: carboxymethylcellulose (CMC)) of the same compound?
A: Its T/C is 146 % of control [9 of 10 alive].

Q: And the T/C [3]?
A: Its T/C is 128 % of control.

Q: What about the survivor count (dose: 80.0 mg/kg/injection, schedule: Q01DX028 (sc), vehicle: water) of the same compound?
A: The survivor count was 2 of 8.

Q: And the survivor count [4]?
A: Its survivor count is 2 of 10.

Q: What does the source list for `O=NN(CCCl)C(=O)NCCCl`?
A: T/C [1]: 142 % of control (2×); T/C (dose: 14.0 mg/kg/injection, schedule: Q01DX028 (sc), vehicle: saline): 133 % of control

Q: For `N=[N+]=CC(=O)OCC(N)C(=O)O` (configuration not stated), which survivor count (dose: 5.0 mg/kg/injection, schedule: Q01DX028 (sc), vehicle: water) is on record?
A: Its survivor count is 0 of 10.

Q: And the survivor count (dose: 8.4 mg/kg/injection, schedule: Q01DX028 (sc), vehicle: water)?
A: The survivor count was 0 of 10.

Q: For `CN(N=O)C(N)=O`, which T/C (dose: 23.0 mg/kg/injection, schedule: Q01DX028 (sc), vehicle: saline) is on record?
A: The T/C was 140 % of control.

Q: With `CS(=O)(=O)OCCC(=O)NCNC(=O)CCOS(C)(=O)=O` as the compound, how does the T/C (dose: 6.25 mg/kg/injection, schedule: Q01DX012 (sc), vehicle: carboxymethylcellulose (CMC)) read?
A: Its T/C is 134 % of control.
